For series [1], the system named is IgG RA1 (rheumatoid arthritis) (human). The experiment in a line: EMSA. As to conditions: purified native protein; label: 32P. In general terms: A gel shift assay detects complexes by their altered migration in electrophoresis.
For series [2], the system named is IgG MS1 (multiple sclerosis) (human). The experiment in a line: EMSA. As to conditions: purified native protein; label: 32P.

The values below come from patent publication US20240336927.

For at least one entry, the source does not settle the construct or the ends of the probe. A negative result means that nothing was seen under these conditions.

As for “GGGGUUGGGGAUUUAGCUCAGUGGUAGAGCGCUUGCCUAGCAAGCGCAAGGCCCUGGGUUCGGUCCUCAGCUCC [BC1 RNA full-length]”, the binding result in series [1] and in series [2] was “no binding” throughout.
On to “GAGGCGGGAGGAUAGCUUGAGCCCAGGAGUUCGAGACCUGCCUGGGCAAUAUAGCGAGACCCCGUUCUC [BC200 RNA full-length]”, for which the binding result in series [1] and in series [2] was “no binding” throughout.
